Measurements reported in PubChem BioAssay AID652259 (Drosophila RNAi Screening Center, 2013).

- Screen: 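Genome-wide hunt for genes that control Wingless pathway activity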 (primary screen)
- Cell system: Drosophila clone 8 imaginal disc epithelial cells
- Reagent: long dsRNA against Drosophila genes
- Conditions: pathway stimulated by co-transfected Wingless expression plasmid
- Detection: 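Dual luciferase reads per well after Wingless plasmid stimulation: reporter firefly light and Renilla control light; activity is firefly divided by Renilla, a ratio not deposited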
- Scale: firefly reporter light: higher = more Wg reporter light, before normalisation; Renilla control light: higher = more transfected or surviving cells
- Call rule: 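a knock-down is a candidate when at least two out of four statistical tests show it departing from its plate mean; one test alone signals a weak candidate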
- Meaning of the calls: active = candidate regulator (raises or lowers reporter); inactive = not a candidate
The screen tested about 22,000 reagents; shown is an unselected part of those with a known target gene and a result. In the full data, 233 (1.1%) are marked active. 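Light values are raw, unnormalised plate reads; the ratio scores behind the reporter calls were not deposited.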 A number with no mark means an inactive call. The numbers tell different reagents against one gene apart. Names joined by + are all predicted targets of the reagent. Not given: the amount of reagent, the time to read-out, the dose of the treatment.

Depletion of Ulp1 resulted in: firefly reporter light, replicate 1 = 3600; firefly reporter light, replicate 2 = 13591; Renilla control light, replicate 1 = 826; Renilla control light, replicate 2 = 3811.
Mst84Dc showed firefly reporter light, replicate 1 = 23459; Renilla control light, replicate 1 = 4332.
Silencing of CG31709 gave: firefly reporter light, replicate 1 = 19152; Renilla control light, replicate 1 = 11574.
For atlas, the entry reads firefly reporter light, replicate 1 = 3062; firefly reporter light, replicate 2 = 8688; Renilla control light, replicate 1 = 982; Renilla control light, replicate 2 = 3696.
RIOK2 gave firefly reporter light, replicate 1 = 15792; Renilla control light, replicate 1 = 16113.
Knock-down of CG1288 resulted in: firefly reporter light, replicate 1 = 12739; Renilla control light, replicate 1 = 2701.
With knock-down of Acp33A + CG15841 (retired record), the record shows firefly reporter light, replicate 1 = 2166; firefly reporter light, replicate 2 = 8696; Renilla control light, replicate 1 = 803; Renilla control light, replicate 2 = 4326.
After knock-down of wkd the results were firefly reporter light, replicate 1 = 12361; Renilla control light, replicate 1 = 2475.
Knock-down of LeuRS-m gave: firefly reporter light, replicate 1 = 4154; Renilla control light, replicate 1 = 1479.
CG14502 gave firefly reporter light, replicate 1 = 15160; Renilla control light, replicate 1 = 4069.
Against euc the deposit lists firefly reporter light, replicate 1 = 17589; Renilla control light, replicate 1 = 3954.
For ND-B16.6 #1, the values are firefly reporter light, replicate 1 = 19552; Renilla control light, replicate 1 = 10200.
With knock-down of ND-B16.6 #2, the record shows firefly reporter light, replicate 1 = 6.66e5; firefly reporter light, replicate 2 = 6.21e5; Renilla control light, replicate 1 = 1.98e5; Renilla control light, replicate 2 = 1.43e5.
lilli gave reporter change call, replicate 1 = Wg reporter activity lowered (active); firefly reporter light, replicate 1 = 3280; Renilla control light, replicate 1 = 4480.
Knock-down of RpL37-1 #1 gave: firefly reporter light, replicate 1 = 21442; Renilla control light, replicate 1 = 8644.
RpL37-1 #2 scored firefly reporter light, replicate 1 = 5.76e5; firefly reporter light, replicate 2 = 6.40e5; Renilla control light, replicate 1 = 2.19e5; Renilla control light, replicate 2 = 2.12e5.
Against meep the deposit lists firefly reporter light, replicate 1 = 2572; Renilla control light, replicate 1 = 1744.
With knock-down of Cyp12e1, the screen gave firefly reporter light, replicate 1 = 10008; Renilla control light, replicate 1 = 2421.
CG10669 scored firefly reporter light, replicate 1 = 13520; Renilla control light, replicate 1 = 14038.
Knock-down of Dad gave: firefly reporter light, replicate 1 = 2269; firefly reporter light, replicate 2 = 9652; Renilla control light, replicate 1 = 1074; Renilla control light, replicate 2 = 2673.
After knock-down of naz #1, the screen gave firefly reporter light, replicate 1 = 19008; Renilla control light, replicate 1 = 4308.
With knock-down of naz #2, the record shows firefly reporter light, replicate 1 = 14884; Renilla control light, replicate 1 = 3798.
Smvt showed firefly reporter light, replicate 1 = 26736; Renilla control light, replicate 1 = 13600.
EMC8-9 scored firefly reporter light, replicate 1 = 7345; Renilla control light, replicate 1 = 1349.
Knock-down of by gave: firefly reporter light, replicate 1 = 15056; Renilla control light, replicate 1 = 3600.
